Values quoted from earlier work, collected in patent US5776859A, “Sodium channel active novel compounds and related processes and bioassay techniques” (priority 1995, dated 1998).

Settings: in the body; conversion to 2,6-xylidine; cited from earlier work

CCN(CC)CC(=O)Nc1c(C)cccc1C [Lidocaine]
metabolism: converted into an aniline homolog, 2, 6-xylidine
